Data published in patent US20260053861A1, “CELL COMPOSITIONS AND METHODS OF USING THE SAME” (THE REGENTS OF THE UNIVERSITY OF CALIFORNIA, priority 2022, published 2026).

Tested on: hPSC-SCs

In the case of `Br.CN1[C@@H]2CC[C@H]1C[C@@H](OC(=O)C(O)c1ccccc1)C2` (stereo partly drawn) [Homatropine hydrobromide (R,S)], the z.score.t is reported as −0.2278.
